Results reported in US10626094B2 (La Jolla Institute of Allergy & Immunology, priority 2014, dated 2020).

By UniProt entry, the sequences of proteins in these tests, tags left out.
UniProt P24666, whole entry: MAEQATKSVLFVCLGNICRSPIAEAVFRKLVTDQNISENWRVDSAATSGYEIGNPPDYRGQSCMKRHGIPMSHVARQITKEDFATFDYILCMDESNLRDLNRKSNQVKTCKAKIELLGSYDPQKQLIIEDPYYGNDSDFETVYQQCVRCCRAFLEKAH

Biological target: LMPTP-A (Low Molecular Weight Protein Tyrosine Phosphatase-A) enzyme (Homo sapiens (Human), UniProt P24666)
Test: LMPTP primary screening / LMPTP (OMFP) enzyme inhibition assay, fluorescence intensity
Format: biochemical
Details: read-out: LMPTP (OMFP) (IC50); Table 2 quinoline series; S sample (synthesized de novo)

With c1ccc(-c2cc(NC3CCCC3)c3ccccc3n2)cc1 the IC50 was 10 µM and 21.1 µM.

A number of entries come with more than one value. The list is limited to them. The source may hold further records. Results that share an entry do not match, cause unknown; they may come from other doses, times, organisms or constructs than stated.
